Assay results as given in patent publication US20220144775A1, “HYDRAZIDE COMPOUND AND KINASE INHIBITOR” (NISSAN CHEMICAL CORPORATION, priority 2019, published 2022).
Some entries share one result that the patent states for a list of compounds.

Columns and labels:
TAZ protein = test: Nuclear translocation of TAZ protein (imaging analysis, SKOV3); assay type: cell-based, human; conditions: 10 μM, 4 hr, nucleus/cytoplasm fluorescence intensity ratio 1.4 or more
[1] = test system: Bovine corneal endothelial cell line BCE C/D-1b; test: Cell proliferation test using bovine corneal endothelial cell; assay type: cell-based; conditions: 10 μM, 4 days
[2] = test system: Human ovarian cancer cell line SKOV3; test: Gene expression downstream of YAP and TAZ in SKOV3 cell; assay type: cell-based; conditions: 10 μM; 24 hr; deacylated gellan gum medium
[3] = test system: Human primary corneal epithelial cell; test: Cell proliferation test using human corneal epithelial cell; assay type: cell-based; conditions: 4 days
[4] = test system: Human primary corneal epithelial cell; test: Gene expression downstream of YAP and TAZ in human primary corneal epithelial cell; assay type: cell-based; conditions: 24 hr
[5] = test system: human primary epidermal keratinocyte; test: Gene expression downstream of YAP and TAZ in human primary epidermal keratinocyte; assay type: cell-based; conditions: 10 μM; 24 hr
YAP protein = test: Nuclear translocation of YAP protein (imaging analysis, SKOV3); assay type: cell-based, human; conditions: 10 μM, 4 hr, nucleus/cytoplasm fluorescence intensity ratio 1.4 or more
[6] = test system: Canine kidney renal tubule epithelial cells (MDCK cells); test: MDCK Cyst formation in Matrigel; assay type: cell-based; conditions: 20 μM; 6 days; DMSO control 12%
[7] = test system: human primary epidermal keratinocyte; test: Cell proliferation test using human primary epidermal keratinocyte; assay type: cell-based; conditions: U-bottom cell low-adhesion plate; 10 μM; 4 days
[8] = 2D culture conditions, final concentration 5 μM for A-011 and A-012
[9] = 3D culture conditions, final concentration 5 μM for A-011 and A-012
[10] = final concentration 5 μM for A-011 and A-012

Molecule | increase in cell count (luminescence amount relative to DMSO control) ([1]; 2D culture conditions) | increase in ANKRD relative expression level (vs GAPDH, DMSO = 1) [2] | increase in CCND1 relative expression level (vs GAPDH, DMSO = 1) [2] | increase in CTGF relative expression level (vs GAPDH, DMSO = 1) [2] | increase in CYR61 relative expression level (vs GAPDH, DMSO = 1) [2] | increase in cell count (luminescence amount relative to DMSO control) ([3]; 3D culture conditions, 10 μM) | increase in CYR61 relative expression level (vs GAPDH, DMSO = 1) ([4]; 10 μM) | increase in CCND1 relative expression level (vs GAPDH, DMSO = 1) ([4]; 10 μM) | increase in cell count (luminescence amount relative to DMSO control) ([3]; 2D culture conditions, 10 μM) | further results
CC/C(=N\NC(=O)C(C)Nc1cccnc1)c1ccc(O)c(C)c1O (single isomer, unassigned) [A-004A, (E)-N′-(1-(2,4-dihydroxy-3-methylphenyl)propylidene)-2-(pyridin-3-ylamino)propanehydrazide] | ≥ 1.2 times | ≥ 100 times | ≥ 4 times | ≥ 20 times | ≥ 30 times | ≥ 4 times | ≥ 2 times |  |  | increase in cell population in which TAZ protein has transferred into nucleus (relative to DMSO) (TAZ protein): ≥ 1.5 times; increase in ANKRD relative expression level (vs GAPDH, DMSO = 1) [5]: ≥ 5 times; increase in CCND1 relative expression level (vs GAPDH, DMSO = 1) [5]: ≥ 1.5 times; increase in CYR61 relative expression level (vs GAPDH, DMSO = 1) [5]: ≥ 2 times; increase in cell population in which YAP protein has transferred into nucleus (relative to DMSO) (YAP protein): ≥ 5 times
CC/C(=N\NC(=O)CNc1cccnc1)c1ccc(O)c(C)c1O [A-002] |  |  |  |  |  |  |  |  |  | Proportion (%) of Cyst with diameter of not less than 80 μm [6]: ≥ 20%
CC/C(=N\NC(=O)C(C)Nc1cccnc1)c1ccc(O)c(C)c1O (centres unmarked) [A-004, (E)-N′-(1-(2,4-dihydroxy-3-methylphenyl)propylidene)-2-(pyridin-3-ylamino)propanehydrazide] | ≥ 1.2 times | ≥ 100 times | ≥ 4 times | ≥ 20 times | ≥ 30 times | ≥ 4 times | ≥ 2 times | ≥ 1.5 times |  | increase in cell count (luminescence amount relative to DMSO control) [7]: ≥ 4 times; increase in cell population in which TAZ protein has transferred into nucleus (relative to DMSO) (TAZ protein): ≥ 1.5 times; increase in cell count (luminescence amount relative to DMSO control) ([1]; 3D culture conditions): ≥ 2 times; Proportion (%) of Cyst with diameter of not less than 80 μm [6]: ≥ 20%; increase in ANKRD relative expression level (vs GAPDH, DMSO = 1) [5]: ≥ 5 times; increase in CCND1 relative expression level (vs GAPDH, DMSO = 1) [5]: ≥ 1.5 times; increase in CYR61 relative expression level (vs GAPDH, DMSO = 1) [5]: ≥ 2 times; increase in cell population in which YAP protein has transferred into nucleus (relative to DMSO) (YAP protein): ≥ 5 times
CC/C(=N\NC(=O)C(CC)Nc1cccnc1)c1ccc(O)c(C)c1O (centres unmarked) [A-005] | ≥ 1.2 times |  |  |  |  | ≥ 4 times | ≥ 2 times |  | ≥ 1.2 times | 
CC/C(=N\NC(=O)[C@@H](C)Nc1cncc(F)c1)c1ccc(O)c(C)c1O [A-007R] | ≥ 1.2 times | ≥ 100 times | ≥ 4 times | ≥ 20 times | ≥ 30 times | ≥ 4 times | ≥ 2 times | ≥ 1.5 times | ≥ 1.2 times | 
CC/C(=N\NC(=O)C(C)Nc1cncc(F)c1)c1ccc(O)c(C)c1O (centres unmarked) [A-007] | ≥ 1.2 times | ≥ 100 times | ≥ 4 times | ≥ 20 times | ≥ 30 times | ≥ 4 times | ≥ 2 times | ≥ 1.5 times |  | increase in cell population in which TAZ protein has transferred into nucleus (relative to DMSO) (TAZ protein): ≥ 1.5 times; increase in ANKRD relative expression level (vs GAPDH, DMSO = 1) [5]: ≥ 5 times; increase in CCND1 relative expression level (vs GAPDH, DMSO = 1) [5]: ≥ 1.5 times; increase in CYR61 relative expression level (vs GAPDH, DMSO = 1) [5]: ≥ 2 times; increase in cell population in which YAP protein has transferred into nucleus (relative to DMSO) (YAP protein): ≥ 5 times
CC/C(=N\NC(=O)[C@@H](C)Nc1ccc(F)nc1)c1ccc(O)c(C)c1O [A-010] | ≥ 1.2 times | ≥ 100 times | ≥ 4 times | ≥ 20 times | ≥ 30 times | ≥ 4 times | ≥ 2 times | ≥ 1.5 times | ≥ 1.2 times | increase in ANKRD relative expression level (vs GAPDH, DMSO = 1) ([4]; 10 μM): ≥ 2 times
CC/C(=N\NC(=O)[C@@H](C)Nc1cncc(Cl)c1)c1ccc(O)c(C)c1O [A-011] | ≥ 1.2 times |  |  |  |  |  |  |  |  | increase in cell count (luminescence amount relative to DMSO control) ([1]; 3D culture conditions): ≥ 2 times; increase in cell count (luminescence amount relative to DMSO control) [3, 8]: ≥ 1.2 times; increase in cell count (luminescence amount relative to DMSO control) [3, 9]: ≥ 4 times; increase in CCND1 relative expression level (vs GAPDH, DMSO = 1) [4, 10]: ≥ 1.5 times; increase in CYR61 relative expression level (vs GAPDH, DMSO = 1) [4, 10]: ≥ 2 times
CC/C(=N\NC(=O)[C@@H](C)Nc1ccc(Cl)nc1)c1ccc(O)c(C)c1O [A-012] | ≥ 1.2 times |  |  |  |  |  |  |  |  | increase in cell count (luminescence amount relative to DMSO control) [3, 8]: ≥ 1.2 times; increase in cell count (luminescence amount relative to DMSO control) [3, 9]: ≥ 4 times; increase in CCND1 relative expression level (vs GAPDH, DMSO = 1) [4, 10]: ≥ 1.5 times; increase in CYR61 relative expression level (vs GAPDH, DMSO = 1) [4, 10]: ≥ 2 times
CC/C(=N\NC(=O)NCc1cccnc1)c1ccc(O)c(C)c1O [B-001, (E)-2-(1-(2,4-dihydroxy-3-methylphenyl)propylidene)-N-(pyridin-3-ylmethyl)hydrazine-1-carboxamide] |  |  |  |  |  |  |  |  |  | Proportion (%) of Cyst with diameter of not less than 80 μm [6]: ≥ 20%
(R,E)-2-[(1H-indazol-6-yl)amino]-N′-[1-(2,4-dihydroxy-3-methylphenyl)propanehydrazide [A-016] |  |  |  |  |  |  | ≥ 2 times | ≥ 1.5 times | ≥ 1.2 times | 
